Experimental findings from PMC4691244 are described below.

No constants are given. Whether binding was seen depends on the method and setting. Binding seen in cells or lysates may run through a third protein. Some binding calls cover weakened binding; strength is not graded here. For some assays here: Sequences can lack the tags named with a protein.

The target in assay [1] is T1, mouse RRP6 (mouse (endogenous in mouse embryonic stem cells)) (UniProt P56960).
T1 sequence: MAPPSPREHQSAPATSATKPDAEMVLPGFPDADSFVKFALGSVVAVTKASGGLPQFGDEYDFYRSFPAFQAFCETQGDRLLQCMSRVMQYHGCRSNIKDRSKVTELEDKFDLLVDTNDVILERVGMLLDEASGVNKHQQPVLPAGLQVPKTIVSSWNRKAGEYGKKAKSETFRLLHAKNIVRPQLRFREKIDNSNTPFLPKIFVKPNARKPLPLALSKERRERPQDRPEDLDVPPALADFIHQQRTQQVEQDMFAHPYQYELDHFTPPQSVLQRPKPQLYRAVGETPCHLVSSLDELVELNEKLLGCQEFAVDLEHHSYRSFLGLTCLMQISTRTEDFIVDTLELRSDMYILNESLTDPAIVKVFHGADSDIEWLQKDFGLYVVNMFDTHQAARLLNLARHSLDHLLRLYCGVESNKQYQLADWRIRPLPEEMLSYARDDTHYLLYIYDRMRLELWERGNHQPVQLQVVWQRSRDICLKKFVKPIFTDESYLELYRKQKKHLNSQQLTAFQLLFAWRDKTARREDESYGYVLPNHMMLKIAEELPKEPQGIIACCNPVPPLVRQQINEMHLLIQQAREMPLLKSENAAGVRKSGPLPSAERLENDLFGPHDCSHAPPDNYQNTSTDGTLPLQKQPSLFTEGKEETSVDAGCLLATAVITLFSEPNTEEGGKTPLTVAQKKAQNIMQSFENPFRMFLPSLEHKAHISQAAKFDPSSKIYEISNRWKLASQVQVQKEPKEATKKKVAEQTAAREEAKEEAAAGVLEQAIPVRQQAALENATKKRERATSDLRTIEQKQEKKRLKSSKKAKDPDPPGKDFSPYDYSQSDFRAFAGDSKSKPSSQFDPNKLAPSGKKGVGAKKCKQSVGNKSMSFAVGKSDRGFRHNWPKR
Put plainly: co-IP; immunoprecipitation of endogenous RRP6 from mouse embryonic stem cells (Dgcr8+/+ and Dgcr8-/-), western blot of copurified DGCR8. Background: In western blotting, separated proteins are transferred to a membrane and probed.

Assay [2] has as its target T2, FLAG-DGCR8 (human) (UniProt Q8WYQ5).
T2 sequence: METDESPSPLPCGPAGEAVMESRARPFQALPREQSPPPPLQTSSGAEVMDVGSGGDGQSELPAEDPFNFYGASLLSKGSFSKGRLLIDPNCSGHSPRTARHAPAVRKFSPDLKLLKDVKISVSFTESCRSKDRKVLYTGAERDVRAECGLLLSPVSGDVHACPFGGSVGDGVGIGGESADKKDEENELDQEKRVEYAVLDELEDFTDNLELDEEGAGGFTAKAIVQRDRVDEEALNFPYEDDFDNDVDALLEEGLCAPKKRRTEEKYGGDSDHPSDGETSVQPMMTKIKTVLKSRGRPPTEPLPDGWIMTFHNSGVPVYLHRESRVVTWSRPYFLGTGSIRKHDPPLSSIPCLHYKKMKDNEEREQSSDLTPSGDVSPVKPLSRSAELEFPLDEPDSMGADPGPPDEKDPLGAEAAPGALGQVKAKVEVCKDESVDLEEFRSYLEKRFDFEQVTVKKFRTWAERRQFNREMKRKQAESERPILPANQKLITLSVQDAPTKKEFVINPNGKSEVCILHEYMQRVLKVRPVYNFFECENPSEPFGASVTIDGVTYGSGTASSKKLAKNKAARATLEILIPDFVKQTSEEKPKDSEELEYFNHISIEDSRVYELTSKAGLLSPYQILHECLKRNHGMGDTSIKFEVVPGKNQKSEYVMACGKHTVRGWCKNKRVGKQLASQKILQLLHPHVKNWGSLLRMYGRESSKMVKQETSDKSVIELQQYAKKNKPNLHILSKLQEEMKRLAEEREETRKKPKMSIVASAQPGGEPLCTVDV
As to the kind of experiment: co-IP; immunoprecipitation of transiently expressed FLAG-DGCR8 from nucleoplasmic and nucleolar fractions, western blot of endogenous hRRP6.

Assay [3] concerns the target T3, T7-DGCR8 (human) (UniProt Q8WYQ5).
T3 sequence: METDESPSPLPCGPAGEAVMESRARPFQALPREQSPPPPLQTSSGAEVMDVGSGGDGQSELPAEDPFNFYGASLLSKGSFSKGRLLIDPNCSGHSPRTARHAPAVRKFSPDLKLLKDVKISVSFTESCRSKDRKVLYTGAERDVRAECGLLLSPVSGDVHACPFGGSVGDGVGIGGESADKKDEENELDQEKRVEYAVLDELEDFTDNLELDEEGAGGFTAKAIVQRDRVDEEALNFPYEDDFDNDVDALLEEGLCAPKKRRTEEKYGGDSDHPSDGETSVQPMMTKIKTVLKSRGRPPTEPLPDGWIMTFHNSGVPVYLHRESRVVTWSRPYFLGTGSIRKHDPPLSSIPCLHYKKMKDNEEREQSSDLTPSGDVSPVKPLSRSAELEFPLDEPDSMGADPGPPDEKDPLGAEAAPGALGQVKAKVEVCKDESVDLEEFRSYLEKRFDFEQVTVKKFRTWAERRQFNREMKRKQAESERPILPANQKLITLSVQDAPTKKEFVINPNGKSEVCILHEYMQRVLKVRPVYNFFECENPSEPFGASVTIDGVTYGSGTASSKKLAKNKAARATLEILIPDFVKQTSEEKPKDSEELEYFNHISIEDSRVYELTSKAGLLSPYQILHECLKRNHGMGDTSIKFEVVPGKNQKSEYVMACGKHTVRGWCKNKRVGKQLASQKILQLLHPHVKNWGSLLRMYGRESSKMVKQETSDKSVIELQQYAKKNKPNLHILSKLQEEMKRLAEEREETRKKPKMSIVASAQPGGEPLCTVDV
As to the kind of experiment: co-IP; anti-T7 or anti-FLAG immunoprecipitation of overexpressed T7-DGCR8, FLAG-DGCR8, FLAG-Drosha (and T7-DGCR8 dRBD1&2 mut) from transfected HEK293T cells; western blot of endogenous partners; in the presence or absence of RNase A (Figure 1C).

For assay [4], the target named is T2, FLAG-DGCR8 (human). The description is as above.
Assay [5] concerns the target T4, FLAG-Drosha (UniProt Q9NRR4).
T4 sequence: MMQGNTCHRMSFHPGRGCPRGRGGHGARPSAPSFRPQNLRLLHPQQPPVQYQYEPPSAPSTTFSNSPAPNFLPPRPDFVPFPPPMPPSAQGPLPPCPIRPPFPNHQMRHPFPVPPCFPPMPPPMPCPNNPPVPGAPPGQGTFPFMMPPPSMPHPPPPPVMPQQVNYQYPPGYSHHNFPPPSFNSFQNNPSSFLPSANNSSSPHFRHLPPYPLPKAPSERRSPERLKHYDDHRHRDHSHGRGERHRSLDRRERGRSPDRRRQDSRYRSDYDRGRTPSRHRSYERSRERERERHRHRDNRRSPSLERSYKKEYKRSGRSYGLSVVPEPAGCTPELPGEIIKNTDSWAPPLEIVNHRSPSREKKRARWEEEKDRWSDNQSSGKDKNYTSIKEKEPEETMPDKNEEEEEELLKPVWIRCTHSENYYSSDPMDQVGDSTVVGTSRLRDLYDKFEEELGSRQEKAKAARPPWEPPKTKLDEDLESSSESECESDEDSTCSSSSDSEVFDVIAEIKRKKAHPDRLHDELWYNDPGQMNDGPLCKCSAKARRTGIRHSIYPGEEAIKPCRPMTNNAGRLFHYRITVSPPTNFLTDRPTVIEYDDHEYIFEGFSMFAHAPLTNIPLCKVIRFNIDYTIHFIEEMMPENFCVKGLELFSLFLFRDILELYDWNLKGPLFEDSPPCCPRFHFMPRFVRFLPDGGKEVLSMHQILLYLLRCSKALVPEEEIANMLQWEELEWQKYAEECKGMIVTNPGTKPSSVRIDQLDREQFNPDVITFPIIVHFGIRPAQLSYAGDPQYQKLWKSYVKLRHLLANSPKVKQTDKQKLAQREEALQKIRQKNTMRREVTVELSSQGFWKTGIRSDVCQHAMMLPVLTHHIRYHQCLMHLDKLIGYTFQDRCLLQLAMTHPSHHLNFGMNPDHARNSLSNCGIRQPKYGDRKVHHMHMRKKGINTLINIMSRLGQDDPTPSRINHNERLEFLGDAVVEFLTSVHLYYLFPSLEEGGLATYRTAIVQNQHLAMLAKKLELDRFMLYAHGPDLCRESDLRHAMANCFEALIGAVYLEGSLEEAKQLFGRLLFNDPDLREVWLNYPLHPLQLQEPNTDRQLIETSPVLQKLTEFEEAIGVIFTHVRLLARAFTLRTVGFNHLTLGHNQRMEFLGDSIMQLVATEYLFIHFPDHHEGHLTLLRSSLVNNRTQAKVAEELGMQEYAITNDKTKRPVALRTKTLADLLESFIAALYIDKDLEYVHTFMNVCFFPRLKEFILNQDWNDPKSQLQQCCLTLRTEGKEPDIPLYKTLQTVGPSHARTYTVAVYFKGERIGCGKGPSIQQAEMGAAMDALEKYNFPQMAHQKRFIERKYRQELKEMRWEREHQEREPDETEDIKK
Described as above.

For assay [6], the target named is T5, DGCR8 (endogenous) (human (endogenous in HEK293T)) (UniProt Q8WYQ5).
T5 sequence: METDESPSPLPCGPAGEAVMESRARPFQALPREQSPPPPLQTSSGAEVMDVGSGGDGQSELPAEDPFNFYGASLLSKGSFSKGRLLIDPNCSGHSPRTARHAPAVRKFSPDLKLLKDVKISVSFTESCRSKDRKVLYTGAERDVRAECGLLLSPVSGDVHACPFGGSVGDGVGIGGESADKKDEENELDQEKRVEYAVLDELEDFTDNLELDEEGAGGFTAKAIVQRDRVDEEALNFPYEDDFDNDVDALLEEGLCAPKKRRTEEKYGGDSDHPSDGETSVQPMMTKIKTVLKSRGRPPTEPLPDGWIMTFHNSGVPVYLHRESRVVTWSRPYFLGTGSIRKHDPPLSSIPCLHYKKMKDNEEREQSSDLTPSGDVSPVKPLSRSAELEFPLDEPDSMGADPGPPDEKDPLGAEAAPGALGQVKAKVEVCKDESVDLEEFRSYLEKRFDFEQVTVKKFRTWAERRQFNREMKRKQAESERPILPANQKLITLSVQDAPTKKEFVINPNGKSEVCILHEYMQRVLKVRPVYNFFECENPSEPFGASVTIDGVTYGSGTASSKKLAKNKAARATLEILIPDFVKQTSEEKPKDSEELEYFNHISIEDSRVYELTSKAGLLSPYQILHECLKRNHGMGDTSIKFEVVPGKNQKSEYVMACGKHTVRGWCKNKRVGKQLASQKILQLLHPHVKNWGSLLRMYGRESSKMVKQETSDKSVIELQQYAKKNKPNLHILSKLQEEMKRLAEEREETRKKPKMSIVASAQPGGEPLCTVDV
As to the kind of experiment: co-IP; reciprocal immunoprecipitation of endogenous DGCR8 and endogenous hRRP6, western blot; in the presence or absence of RNase A.

Assay [7] addresses T2, FLAG-DGCR8 (human). As to the kind of experiment: co-IP + co-sedimentation; FLAG immunoprecipitates eluted under native conditions, 5%-30% glycerol gradient (50mM Tris (pH 0.5), 150 mM NaCl, 1 mM EDTA; 16 hr at 41,000 rpm), fractions pooled into light (1-11) and heavy (12-22), western blot; lysates produced in the presence of DNase and RNase.
The target in assay [8] is T4, FLAG-Drosha. The description is as above.

B1: mouse DGCR8 (protein, UniProt Q9EQM6 1-773)
chain: METYESPSPLPREPAGEAMMENRACPFQVLPHEQSPPPPLQTSSDAEVMDVGSGGDGQSEPPADDPFNFYGASLLSKGSFSKGRLLIDPNCSGHSPRTARHAPAVRKFSPDLKLLKDVKISVSFTESCRSKDRKVLYTGVERSTRPECGQLLSPVSGDVHACPFGGSVGNGVGLGGESADKKDEENELDQEKRVEYAVLDELEDFTDNLELDEEGTGGFTAKAIVQRDRVDEEALNFSYEDDFDNDVDALLEEGLCAPKKRRMEEKYGGDSDHPSDGETSVQPMMTKIKTVLKSRGRPPTEPLPDGWIMTFHNSGVPVYLHRESRVVTWSRPYFLGTGSIRKHDPPLSSIPCLHYKKMKDNEEREQNCDLAPSGEVSPVKPLGRSAELDFPLEEPDSMGGDSGSMDEKDPLGAEAAAGALGQVKAKVEVCKDESVDLEEFRNYLEKRFDFEQVTVKKFRTWAERRQFNREMKRKQAESERPILPANQKLITLSVQDAPTKKEFVINPNGKSEVCILHEYMQRVLKVRPVYNFFECENPSEPFGASVTIDGVTYGSGTASSKKLAKNKAARATLEILIPDFVKQTSEEKPKDSEELEYFNHISIEDSRVYELTSKAGLLSPYQILHECLKRNHGMGDTSIKFEVVPGKNQKSEYVMACGKHTVRGWCKNKRVGKQLASQKILQLLHPHVKNWGSLLRMYGRESSKMVKQETSDKSVIELQQYAKKNRPNLHILSKLQEEMKRLAAEREETRKKPKMSIVASAQPGGEPLCTVDV
For B1, the binding entry in assay [1] was “binds”.

B2: hRRP6 (enzyme, UniProt Q01780 1-885)
chain: MAPPSTREPRVLSATSATKSDGEMVLPGFPDADSFVKFALGSVVAVTKASGGLPQFGDEYDFYRSFPGFQAFCETQGDRLLQCMSRVMQYHGCRSNIKDRSKVTELEDKFDLLVDANDVILERVGILLDEASGVNKNQQPVLPAGLQVPKTVVSSWNRKAAEYGKKAKSETFRLLHAKNIIRPQLKFREKIDNSNTPFLPKIFIKPNAQKPLPQALSKERRERPQDRPEDLDVPPALADFIHQQRTQQVEQDMFAHPYQYELNHFTPADAVLQKPQPQLYRPIEETPCHFISSLDELVELNEKLLNCQEFAVDLEHHSYRSFLGLTCLMQISTRTEDFIIDTLELRSDMYILNESLTDPAIVKVFHGADSDIEWLQKDFGLYVVNMFDTHQAARLLNLGRHSLDHLLKLYCNVDSNKQYQLADWRIRPLPEEMLSYARDDTHYLLYIYDKMRLEMWERGNGQPVQLQVVWQRSRDICLKKFIKPIFTDESYLELYRKQKKHLNTQQLTAFQLLFAWRDKTARREDESYGYVLPNHMMLKIAEELPKEPQGIIACCNPVPPLVRQQINEMHLLIQQAREMPLLKSEVAAGVKKSGPLPSAERLENVLFGPHDCSHAPPDGYPIIPTSGSVPVQKQASLFPDEKEDNLLGTTCLIATAVITLFNEPSAEDSKKGPLTVAQKKAQNIMESFENPFRMFLPSLGHRAPVSQAAKFDPSTKIYEISNRWKLAQVQVQKDSKEAVKKKAAEQTAAREQAKEACKAAAEQAISVRQQVVLENAAKKRERATSDPRTTEQKQEKKRLKISKKPKDPEPPEKEFTPYDYSQSDFKAFAGNSKSKVSSQFDPNKQTPSGKKCIAAKKIKQSVGNKSMSFPTGKSDRGFRYNWPQR
Consider B2, for which the binding result is given as “binds” in assay [2]; “binds” in assay [3]; “binds” in assay [4]; “no binding” in assay [5]; “binds” in assay [6]; “binds” in assay [7]. The binding result in assay [8] is “no binding”.
